Measurements: patent publication US8552007B2, “Mesoionic pesticides” (E.I. du Pont de Nemours and Company, priority 2008, dated 2013)
Where two headings read alike, the source gives them in different places. Some results were stated once for a whole list of compounds, not compound by compound. At least one structure is not confirmed: it was looked up by name or label, or the drawing left a doubt.

Legend:
Type in all cases: in vivo
[1] = tested on: diamondback moth (Plutella xylostella); assay: Test A: control of diamondback moth, foliar spray on pre-infested radish plant; settings: sprayed at 250 ppm, 6 days at 25° C., very good to excellent control
[2] = tested on: fall armyworm (Spodoptera frugiperda); assay: Test B: control of fall armyworm, foliar spray on pre-infested maize plant; settings: sprayed at 250 ppm, very good to excellent control
[3] = tested on: potato leafhopper (Empoasca fabae); settings: Soleil bean plant, 6 days

Row | SMILES | control efficacy: feeding damage (40% or less feeding damage and/or 100% mortality) [1] [%] | control efficacy: feeding damage (40% or less feeding damage and/or 100% mortality) [2] [%] | mortality ([3]; sprayed at 50 ppm) [%] | mortality ([3]; sprayed at 250 ppm) [%]
1 | COc1ccccc1-c1c([O-])[n+](Cc2cnc(Cl)s2)c2ccccn2c1=O [Compound 200] | ≤ 40 | ≤ 40 | ≥ 80 | 
2 | O=c1c(-c2ccc(C(F)(F)F)cc2)c([O-])[n+](Cc2cnc(Cl)s2)c2ccccn12 [Compound 478] | ≤ 40 | ≤ 40 |  | ≥ 80
3 | O=c1c(-c2ccc3c(c2)CCO3)c([O-])[n+](Cc2cnc(Cl)s2)c2ccccn12 [Compound 495] | ≤ 40 | ≤ 40 | ≥ 80 | 
4 | COc1ccc(F)c(-c2c([O-])[n+](Cc3cnc(Cl)s3)c3ccccn3c2=O)c1 [Compound 180] | ≤ 40 | ≤ 40 | ≥ 80 | 
5 | O=c1c(-c2ccc(F)c(F)c2)c([O-])[n+](Cc2cnc(Cl)s2)c2ccccn12 [Compound 482] | ≤ 40 | ≤ 40 | ≥ 80 | ≥ 80
6 | O=c1c(-c2cc(Br)ccc2F)c([O-])[n+](Cc2ccc(Cl)nc2)c2ccccn12 [Compound 62] | ≤ 40 | ≤ 40 | ≥ 80 | ≥ 80
7 | O=c1c(-c2ccc(OC(F)F)cc2)c([O-])[n+](Cc2cnc(Cl)s2)c2ccccn12 [Compound 48] | ≤ 40 | ≤ 40 | ≥ 80 | ≥ 80
8 | CC([n+]1c([O-])c(-c2cccc(-c3ccc(Cl)nc3)c2)c(=O)n2ccccc21)C(F)(F)F (stereo not drawn) [Compound 534] | ≤ 40 | ≤ 40 | ≥ 80 | 
9 | COc1cc(OC)cc(-c2c([O-])[n+](Cc3cnc(Cl)s3)c3ccccn3c2=O)c1 [Compound 185] | ≤ 40 | ≤ 40 | ≥ 80 | 
10 | O=c1c(-c2cccc(OC(F)(F)F)c2)c([O-])[n+](CC2CC2)c2ccccn12 [Compound 18] | ≤ 40 | ≤ 40 |  | ≥ 80
11 | COc1ccc(-c2c([O-])[n+](Cc3cnc(Cl)s3)c3ccccn3c2=O)c(F)c1 [Compound 654] | ≤ 40 | ≤ 40 | ≥ 80 | 
12 | CC(c1ccc(Cl)nc1)[n+]1c([O-])c(-c2cc(Br)cc(C(F)(F)F)c2)c(=O)n2ccccc21 (stereo not drawn) [Compound 261] | ≤ 40 | ≤ 40 | ≥ 80 | 
13 | Cn1cc(C[n+]2c([O-])c(-c3cc(Br)cc(OC(F)(F)F)c3)c(=O)n3ccccc32)cn1 [Compound 256] | ≤ 40 | ≤ 40 | ≥ 80 | 
14 | O=c1c(-c2cccc(OC(F)(F)F)c2)c([O-])[n+](Cc2ccc(Cl)nc2)c2ccccn12 [Compound 54] | ≤ 40 | ≤ 40 | ≥ 80 | ≥ 80
15 | O=c1c(-c2c(F)ccc(Cl)c2F)c([O-])[n+](Cc2cnc(Cl)s2)c2ccccn12 [Compound 663] | ≤ 40 | ≤ 40 | ≥ 80 | 
16 | O=c1c(-c2cccc(C(F)(F)F)c2)c([O-])[n+](Cc2ccc(Cl)nc2)c2ccccn12 [Compound 53] | ≤ 40 | ≤ 40 | ≥ 80 | ≥ 80
17 | O=c1c(-c2cc(C(F)(F)F)ccc2F)c([O-])[n+](Cc2ccc(Cl)nc2)c2ccccn12 [Compound 66] | ≤ 40 | ≤ 40 |  | ≥ 80
18 | Cc1cc(C[n+]2c([O-])c(-c3ccccc3)c(=O)n3ccccc32)on1 [Compound 196] | ≤ 40 | ≤ 40 | ≥ 80 | 

Row | SMILES | control efficacy: feeding damage (40% or less feeding damage and/or 100% mortality) [1] [%] | control efficacy: feeding damage (40% or less feeding damage and/or 100% mortality) [2] [%] | mortality ([3]; sprayed at 50 ppm) [%] | mortality ([3]; sprayed at 250 ppm) [%]
19 | Cc1ccc(-c2c([O-])[n+](Cc3ccc(Cl)nc3)c3ccccn3c2=O)cc1 [Compound 84] | ≤ 40 | ≤ 40 | ≥ 80 | ≥ 80
20 | COc1ccc(Br)cc1-c1c([O-])[n+](Cc2cnc(Cl)s2)c2ccccn2c1=O [Compound 277] | ≤ 40 | ≤ 40 | ≥ 80 | 
21 | O=c1c(-c2cc(S(F)(F)(F)(F)F)ccc2Cl)c([O-])[n+](Cc2cnc(Cl)s2)c2ccccn12 [Compound 245] | ≤ 40 | ≤ 40 | ≥ 80 | 
22 | COc1cc(-c2c([O-])[n+](Cc3cnc(Cl)s3)c3ccccn3c2=O)ccc1F [Compound 486] | ≤ 40 | ≤ 40 | ≥ 80 | 
23 | O=c1c(-c2cc(OC(F)(F)F)ccc2F)c([O-])[n+](Cc2cnc(Cl)s2)c2ccccn12 [Compound 193] | ≤ 40 | ≤ 40 | ≥ 80 | 
24 | CC([n+]1c([O-])c(-c2cccc(OC(F)(F)F)c2)c(=O)n2ccccc21)C(F)(F)F (stereo not drawn) [Compound 217] | ≤ 40 | ≤ 40 | ≥ 80 | 
25 | CC([n+]1c([O-])c(-c2cc(OC(F)(F)F)ccc2Cl)c(=O)n2ccccc21)C(F)(F)F (stereo not drawn) [Compound 252] | ≤ 40 | ≤ 40 | ≥ 80 | 
26 | O=c1c(-c2cccc(OC(F)(F)F)c2)c([O-])[n+](Cc2ccc(F)nc2)c2ccccn12 [Compound 226] | ≤ 40 | ≤ 40 | ≥ 80 | 
27 | Cn1cc(C[n+]2c([O-])c(-c3cccc(OC(F)(F)F)c3)c(=O)n3ccccc32)cn1 [Compound 232] | ≤ 40 | ≤ 40 | ≥ 80 | 
28 | O=c1c(-c2ccc(F)c(C(F)(F)F)c2)c([O-])[n+](Cc2ccc(Cl)nc2)c2ccccn12 [Compound 74] | ≤ 40 | ≤ 40 | ≥ 80 | ≥ 80
29 | O=c1c(-c2cccc(Cl)c2)c([O-])[n+](CC(F)(F)F)c2ccccn12 [Compound 3] | ≤ 40 | ≤ 40 | ≥ 80 | ≥ 80
30 | O=c1c(-c2cccc(OC(F)(F)F)c2)c([O-])[n+](CC(F)(F)F)c2ccccn12 [Compound 40] | ≤ 40 | ≤ 40 | ≥ 80 | ≥ 80
31 | O=c1c(-c2cc(C(F)(F)F)ccc2F)c([O-])[n+](Cc2cnc(Cl)s2)c2ccccn12 [Compound 166] | ≤ 40 | ≤ 40 | ≥ 80 | 
32 | O=c1c(-c2ccc(C(F)(F)F)cc2F)c([O-])[n+](Cc2ccc(Cl)nc2)c2ccccn12 [Compound 79] | ≤ 40 | ≤ 40 | ≥ 80 | ≥ 80
33 | O=c1c(-c2ccc(Cl)cc2Cl)c([O-])[n+](Cc2cnc(Cl)s2)c2ccccn12 [Compound 489] | ≤ 40 | ≤ 40 | ≥ 80 | 
34 | O=c1c(-c2ccccc2F)c([O-])[n+](Cc2cnc(Cl)s2)c2ccccn12 [Compound 50] | ≤ 40 | ≤ 40 | ≥ 80 | ≥ 80
35 | O=c1c(-c2c(F)ccc(F)c2F)c([O-])[n+](Cc2cnc(Cl)s2)c2ccccn12 [Compound 618] | ≤ 40 | ≤ 40 | ≥ 80 | 
36 | COc1ccc(-c2c([O-])[n+](Cc3ccc(Cl)nc3)c3ccccn3c2=O)c(F)c1 [Compound 95] | ≤ 40 | ≤ 40 | ≥ 80 | ≥ 80
